According to PubChem BioAssay (NCATS):
Inconclusive results, whose numbers are uncertain, are shown with a selection of clear calls. For part of these data: Potencies beside an inconclusive call are fits to weak or partial responses and may not hold up. Activity calls are given as the source filed them. The call rests on the fitted dose curve; in most records, active means well fitted curve in the direction sought with a large enough effect; inconclusive means small, poorly fitted or top-dose-only effect, or another doubt; inactive means no such curve, though single readings can be large; an effect the other way counts as inactive or inconclusive.

Columns and labels:
[1] = Quantitative High-Throughput drug screen in 47 multiple myeloma cell lines against the NCATS MIPE library collection: KMS20_JCRB cell viability assay (AID 1918973); settings: CellTiter-Glo ATP, 48 h; viability (% of DMSO): at 45.8 µM (top of the series); further: nearly all actives have a fitted effect of over 45% in size;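 on viability (% of DMSO): 100% = DMSO only wells and 0% = media only wells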
In short: (§1)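 qHTS of the MIPE 4.0 collection: 500 myeloma cells/well, 48 h drug exposure at 37C in 5% CO2, then CellTiter-Glo for 5 min at room temperature before luminescence reading.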

[2] = Quantitative High-Throughput drug screen in 47 multiple myeloma cell lines against the NCATS MIPE library collection: KMS21BM_JCRB cell viability assay (AID 1918974); settings: ATP luminescence, 48 h; viability: at 45.8 µM (top of the series) unless noted
In short: as §1

[3] = Quantitative High-Throughput drug screen in 47 multiple myeloma cell lines against the NCATS MIPE library collection: MOLP8_DSMZ cell viability assay (AID 1918977); settings: MOLP8 myeloma viability, CellTiter-Glo ATP luminescence, 48 h; viability (% of control): at 45.8 µM (top of the series); further: nearly all actives have a fitted effect of over 45% in size;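 on viability (% of control): 100% = DMSO-only wells and 0% = media-only wells without cells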
In short: (§2)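 Cells were exposed to library compounds for 48 hours, after which ATP was measured by CellTiter-Glo. Signal was taken as median relative luminescence units.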

[4] = Quantitative High-Throughput drug screen in 47 multiple myeloma cell lines against the NCATS MIPE library collection: MM1S_ATCC cell viability assay (AID 1918980); further: nearly all actives have a fitted effect of over 45% in size;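 on viability (% of control): 100% = wells with DMSO only and 0% = wells with media only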
In short: as §2

[5] = Quantitative High-Throughput drug screen in 47 multiple myeloma cell lines against the NCATS MIPE library collection: MM1R_ATCC cell viability assay (AID 1918981); further: nearly all actives have a fitted effect of over 35% in size
In short: as §2

[6] = Quantitative High-Throughput drug screen in 47 multiple myeloma cell lines against the NCATS MIPE library collection: LP1_DSMZ cell viability assay (AID 1918982); settings: LP1 myeloma viability, CellTiter-Glo ATP luminescence, 48 h; viability (% of control): at 45.8 µM (top of the series); further: nearly all actives have a fitted effect of over 35% in size
In short: as §2

[7] = Quantitative High-Throughput drug screen in 47 multiple myeloma cell lines against the NCATS MIPE library collection: L363_DSMZ cell viability assay (AID 1918984); settings: L363 myeloma viability, CellTiter-Glo ATP luminescence, 48 h; viability (% of control): at 45.8 µM (top of the series); further: nearly all actives have a fitted effect of over 40% in size
In short: as §2

[8] = Quantitative High-Throughput drug screen in 47 multiple myeloma cell lines against the NCATS MIPE library collection: KMS34_JCRB cell viability assay (AID 1918985); settings: KMS34 myeloma viability, CellTiter-Glo ATP luminescence, 48 h; viability, percent of control: at 45.8 µM (top of the series); further: nearly all actives have a fitted effect of over 40% in size;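 on viability, percent of control: 100% = DMSO-only wells and 0% = media-only wells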
In short: as §2

[9] = Quantitative High-Throughput drug screen in 47 multiple myeloma cell lines against the NCATS MIPE library collection: OCIMY7_PLB cell viability assay (AID 1918987); settings: OCI-MY7 myeloma viability, CellTiter-Glo ATP, 48 h; viability (% of DMSO): at 45.8 µM (top of the series); further: nearly all actives have a fitted effect of over 65% in size
In short: as §2

[10] = Quantitative High-Throughput drug screen in 47 multiple myeloma cell lines against the NCATS MIPE library collection: OCIMY5_PLB cell viability assay (AID 1918988); settings: OCI-MY5 myeloma viability, ATP luminescence, 48 h; viability, % of control: at 45.8 µM (top of the series); further: nearly all actives have a fitted effect of over 65% in size
In short: as §2

[11] = Quantitative High-Throughput drug screen in 47 multiple myeloma cell lines against the NCATS MIPE library collection: OPM1_PLB cell viability assay (AID 1918989); further: nearly all actives have a fitted effect of over 40% in size;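 on viability (% of control): 100% = DMSO-only wells and 0% = media-only wells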
In short: as §2

[12] = Quantitative High-Throughput drug screen in 47 multiple myeloma cell lines against the NCATS MIPE library collection: SKMM1_PLB cell viability assay (AID 1919863); settings: SKMM1 myeloma viability, CellTiter-Glo ATP, 48 h; viability: stronger effect = lower value; further: nearly all actives have a fitted effect of over 35% in size
In short: as §2

[13] = Quantitative High-Throughput drug screen in 47 multiple myeloma cell lines against the NCATS MIPE library collection: U266_ATCC cell viability assay (AID 1919864); settings: U266 myeloma viability, CellTiter-Glo ATP luminescence, 48 h; viability (% of DMSO control): at 45.8 µM (top of the series); further: nearly all actives have a fitted effect of over 35% in size;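 on viability (% of DMSO control): 0% = media-only wells without cells and 100% = DMSO-only wells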
In short: as §2

[14] = Quantitative High-Throughput drug screen in 47 multiple myeloma cell lines against the NCATS MIPE library collection: XG6_PLB cell viability assay (AID 1919865); settings: XG6 myeloma viability, CellTiter-Glo ATP luminescence, 48 h; viability (% of control): at 45.8 µM (top of the series); further: nearly all actives have a fitted effect of over 40% in size
In short: as §2

[15] = Quantitative High-Throughput drug screen in 47 multiple myeloma cell lines against the NCATS MIPE library collection: XG1_PLB cell viability assay (AID 1919866); settings: CellTiter-Glo ATP, 48 h; viability: at 45.8 µM (top of the series); further: nearly all actives have a fitted effect of over 35% in size
In short: as §2

[16] = Quantitative High-Throughput drug screen in 47 multiple myeloma cell lines against the NCATS MIPE library collection: KMS26_JCRB cell viability assay (AID 1918975); settings: KMS26 myeloma cells viability, CellTiter-Glo ATP, 48 h; viability (% of DMSO): at 45.8 µM (top of the series); further: nearly all actives have a fitted effect of over 45% in size
In short: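 Steps: seed 500 cells per well; pin-transfer MIPE 4.0 library; incubate 48 h at 37C, 5% CO2, humidified; add CellTiter-Glo, 5 min room temperature; read luminescence.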

[17] = Quantitative High-Throughput drug screen in 47 multiple myeloma cell lines against the NCATS MIPE library collection: MMM1_PLB cell viability assay (AID 1918976); further: nearly all actives have a fitted effect of over 35% in size
In short: as §2

[18] = Quantitative High-Throughput drug screen in 47 multiple myeloma cell lines against the NCATS MIPE library collection: NCIH929_DSMZ cell viability assay (AID 1918978); further: nearly all actives have a fitted effect of over 35% in size
In short: as §2

[19] = Quantitative High-Throughput drug screen in 47 multiple myeloma cell lines against the NCATS MIPE library collection: OCIMY1_PLB cell viability assay (AID 1918979); settings: OCI-MY1 myeloma viability, CellTiter-Glo ATP, 48 h; viability: at 45.8 µM (top of the series) unless noted; further: nearly all actives have a fitted effect of over 35% in size
In short: as §2

[20] = Quantitative High-Throughput drug screen in 47 multiple myeloma cell lines against the NCATS MIPE library collection: KMS28PE_JCRB cell viability assay (AID 1918983); further: nearly all actives have a fitted effect of over 35% in size
In short: as §2
Potency means the concentration at half of the fitted maximal effect.

CCc1ccc(CCOc2ccc(CC3SC(=O)NC3=O)cc2)nc1 (stereo not given)
Potency [1]: inconclusive: 0.059 µM [cytotoxic, full curve, poor fit] | Potency [2]: inconclusive: 0.0105 µM [cytotoxic, full curve, poor fit] | Potency [3]: inactive | Potency [4]: inconclusive: 4.69 µM [cytotoxic, partial curve, poor fit] | Potency [5]: inactive | Potency [6]: inconclusive: 2.35 µM [cytotoxic, full curve, poor fit] | Potency [7]: inconclusive: 3.72 µM [cytotoxic, full curve, poor fit] | Potency [8]: inactive | Potency [9]: inconclusive: 9.35 µM [cytotoxic, full curve, poor fit] | Potency [10]: inconclusive: 1.48 µM [cytotoxic, full curve, poor fit] | Potency [11]: inactive | Potency [12]: inconclusive: 1.32 µM [cytotoxic, full curve, poor fit] | Potency [13]: inactive | Potency [14]: inconclusive: 3.32 µM [cytotoxic, partial curve, poor fit] | Potency [15]: inconclusive: 18.7 µM [cytotoxic, partial curve, poor fit]

Cc1ccc(Nc2nccc(N(C)c3ccc4c(C)n(C)nc4c3)n2)cc1S(N)(=O)=O
Potency [1]: inconclusive: 20.9 µM [cytotoxic, partial curve, poor fit] | Potency [16]: active: 23.5 µM | Potency [17]: inconclusive: 18.7 µM [cytotoxic, partial curve, poor fit] | Potency [3]: inconclusive: 23.5 µM [cytotoxic, partial curve, poor fit] | Potency [18]: inconclusive: 20.9 µM [cytotoxic, partial curve] | Potency [19]: inconclusive: 37.2 µM [cytotoxic, single point] | Potency [4]: inconclusive: 0.0264 µM [rising, full curve, poor fit] | Potency [5]: inconclusive: 20.9 µM [cytotoxic, partial curve] | Potency [6]: inconclusive: 16.6 µM [cytotoxic, partial curve] | Potency [20]: inconclusive: 26.4 µM [cytotoxic, single point] | Potency [7]: active: 11.8 µM | Potency [8]: inconclusive: 29.6 µM [cytotoxic, single point] | Potency [12]: inconclusive: 23.5 µM [cytotoxic, single point] | Potency [13]: inconclusive: 0.0105 µM [rising, full curve, poor fit]

Cc1cccc(-c2[nH]c(C(C)(C)C)nc2-c2ccc3c(c2)OCO3)n1
Potency [1]: active: 2.35 µM | Potency [2]: inconclusive: 37.2 µM [rising, partial curve] | Potency [3]: active: 6.62 µM | Potency [19]: inconclusive: 33.2 µM [cytotoxic, single point] | Potency [5]: inconclusive: 11.8 µM [cytotoxic, partial curve, poor fit] | Potency [6]: inconclusive: 16.6 µM [cytotoxic, partial curve] | Potency [9]: active: 9.35 µM | Potency [11]: active: 1.87 µM | Potency [12]: active: 20.9 µM | Potency [14]: active: 2.96 µM

CC(C)(C)c1cc(C(C)(C)C)c(NC(=O)c2c[nH]c3ccccc3c2=O)cc1O
Potency [1]: inactive | Potency [2]: inactive | Potency [3]: inconclusive: 33.2 µM [cytotoxic, single point] | Potency [4]: inactive | Potency [6]: inactive | Potency [7]: inconclusive: 5.26 µM [cytotoxic, partial curve, poor fit] | Potency [9]: inconclusive: 0.0019 µM [rising, full curve, poor fit] | Potency [10]: inconclusive: 8.33 µM [cytotoxic, full curve, poor fit] | viability [12]: inactive: 97.5% | Potency [15]: inconclusive: 0.001 µM

COc1cc(N2CCN(C)CC2)ccc1Nc1nc(N)c(C(=O)c2c(Cl)cccc2Cl)s1
Potency [1]: inconclusive: 8.33 µM [cytotoxic, full curve, poor fit] | Potency [2]: active: 10.5 µM | Potency [3]: inconclusive: 0.935 µM [cytotoxic, full curve, poor fit] | Potency [5]: inconclusive: 16.6 µM [cytotoxic, partial curve, poor fit] | Potency [6]: inconclusive: 20.9 µM [cytotoxic, single point] | Potency [7]: active: 20.9 µM | Potency [8]: inconclusive: 37.2 µM [cytotoxic, single point] | Potency [9]: inconclusive: 0.935 µM [cytotoxic, full curve, poor fit] | Potency [12]: inconclusive: 6.62 µM [cytotoxic, partial curve, poor fit] | Potency [14]: inconclusive: 33.2 µM [cytotoxic, single point]

Cc1cnc(Nc2ccc(N3CCN(C)CC3)cc2)nc1Nc1cccc(S(=O)(=O)NC(C)(C)C)c1
Potency [1]: active: 7.43 µM | Potency [2]: active: 0.148 µM | Potency [3]: active: 2.09 µM | Potency [19]: inconclusive: 14.8 µM [cytotoxic, partial curve, poor fit] | Potency [8]: active: 2.35 µM | Potency [14]: active: 0.662 µM

CC(=O)NCCC(=O)N[C@@H](CCC(N)=O)C(=O)N[C@@H](CO)C(=O)N[C@@H](CCC(N)=O)C(=O)N[C@@H](CCC(N)=O)C(=O)N[C@H](C(=O)N[C@@H](Cc1ccccc1)C(=O)N[C@]1(C)CCCCCCC=CCCC[C@@](C)(C(=O)N[C@@H](CCC(N)=O)C(=O)N[C@@H](CC(N)=O)C(N)=O)NC(=O)[C@H](CC(C)C)NC(=O)[C@H](CC(C)C)NC(=O)[C@@H](CCCNC(=N)N)NC(=O)[C@H](Cc2c[nH]c3ccccc23)NC(=O)[C@H](CC(C)C)NC(=O)[C@H](CC(N)=O)NC1=O)[C@H](C)O
Potency [1]: active: 18.7 µM | Potency [2]: inconclusive: 37.2 µM [rising, partial curve, poor fit] | Potency [3]: inconclusive: 18.7 µM [cytotoxic, partial curve] | Potency [7]: inconclusive: 2.96 µM [cytotoxic, full curve, poor fit] | Potency [8]: inconclusive: 33.2 µM [cytotoxic, partial curve, poor fit] | Potency [9]: active: 20.9 µM | Potency [10]: inconclusive: 20.9 µM [cytotoxic, partial curve, poor fit] | Potency [13]: inconclusive: 13.2 µM [cytotoxic, partial curve, poor fit] | Potency [14]: inconclusive: 33.2 µM [rising, single point] | Potency [15]: inconclusive: 37.2 µM [cytotoxic, single point]
